PubChem BioAssay AID1671195 – Yale University | 2021
Screen: 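Regulators of LDL receptor activity judged by labelled LDL uptake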 (primary screen). Cell system: human Huh7 hepatoma cells. Reagents: siRNA pool against human genes, 18 nM. Time to read-out: about 2 to 2.5 days of knockdown, then 8 h LDL uptake. Treatment: DiI-labelled LDL at 30 µg/ml for 8 h, in lipoprotein-deficient serum medium. Read-out: 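Per-cell DiI-LDL intensity by automated imaging; well means scaled to the plate median and given as a robust z-score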. Scale: robust z-score: higher = more LDL uptake after knockdown. Hit rule: 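a gene counts as active if at least two replicate z-scores exceed ±2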.
In all, the deposit lists about 22,000 reagents; below is a part drawn at random. Of all reagents, about 1,510 (6.9%) were called active. 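Active includes knockdowns raising or lowering LDL uptake; positive z-scores mean more uptake, negative mean less.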 No sequences are given here.

gene knocked down,"robust z-score, replicate 1","robust z-score, replicate 2","robust z-score, replicate 3",Call
HMBOX1 (GeneID 79618),-0.864,-1.46,-1.06,inactive
SNX13 (GeneID 23161),0.839,2.76,2,active
UBQLN4 (GeneID 56893),0.813,0.852,0.972,inactive
GTF2A2 (GeneID 2958),-0.644,-0.713,-0.474,inactive
HSPA1A (GeneID 3303),3.3,2.94,2.78,active
PMPCA (GeneID 23203),0.234,0.799,-0.0545,inactive
SLC7A11 (GeneID 23657),-0.44,-0.457,-0.116,inactive
H1-6 (GeneID 3010),-0.91,-1.18,-0.79,inactive
XTBD1 (GeneID 91368),-1.3,-1.16,-1,inactive
AVIL (GeneID 10677),-2.38,-2.04,-2.79,active
STAC (GeneID 6769),-0.0505,0.443,2.04,inactive
DEF8 (GeneID 54849),0.952,0.874,0.716,inactive
SNCAIP (GeneID 9627),-1.61,-1.36,-2.05,inactive
GATA1 (GeneID 2623),-0.703,-0.994,-0.937,inactive
NICN1 (GeneID 84276),0.887,1.04,2.29,inactive
HTR3D (GeneID 200909),-0.842,-0.936,-1.22,inactive
SYCP2 (GeneID 10388),1.01,1.13,0.0431,inactive
ZNF2 (GeneID 7549),0.977,0.685,0.639,inactive
DYSF (GeneID 8291),2.25,2.64,1.24,active
CCNE2 (GeneID 9134),-0.754,0.509,-0.728,inactive
THEMIS (GeneID 387357),0.445,0.145,0.453,inactive
TMPRSS4 (GeneID 56649),-1.68,-1.26,-1.8,inactive
ADRA2C (GeneID 152),-0.00603,0.891,-0.256,inactive
IL2RA (GeneID 3559),-1.54,-2.23,-1.38,inactive
EPN1 (GeneID 29924),1.37,0.867,0.869,inactive
OPN1SW (GeneID 611),1.41,1.08,1.55,inactive
DEPP1 (GeneID 11067),1.4,0.92,0.679,inactive
LOC400939 (retired record) (GeneID 400939),0.225,0.231,0.181,inactive

Already shown: an excerpt of the list.
gene knocked down,"robust z-score, replicate 1","robust z-score, replicate 2","robust z-score, replicate 3",Call
EPN1 (GeneID 29924),1.37,0.867,0.869,inactive
OPN1SW (GeneID 611),1.41,1.08,1.55,inactive
